According to the supplement of paper PMC10849652:
Some of the results follow.

Sequences of proteins named here, by UniProt entry; tags and fusion partners are left off. A change or cut given only in a name is not applied to a line headed by its entry.
UniProt P06732: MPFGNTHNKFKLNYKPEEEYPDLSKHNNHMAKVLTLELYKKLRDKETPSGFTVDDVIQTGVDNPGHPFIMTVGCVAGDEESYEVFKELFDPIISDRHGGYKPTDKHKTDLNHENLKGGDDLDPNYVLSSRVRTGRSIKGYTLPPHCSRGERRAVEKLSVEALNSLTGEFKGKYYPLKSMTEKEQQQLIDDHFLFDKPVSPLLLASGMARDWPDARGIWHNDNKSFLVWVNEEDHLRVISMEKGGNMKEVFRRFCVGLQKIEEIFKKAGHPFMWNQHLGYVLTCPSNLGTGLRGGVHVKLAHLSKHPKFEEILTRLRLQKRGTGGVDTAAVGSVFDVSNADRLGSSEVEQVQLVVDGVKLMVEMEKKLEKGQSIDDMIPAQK
UniProt Q9UQN3, whole entry, looked up: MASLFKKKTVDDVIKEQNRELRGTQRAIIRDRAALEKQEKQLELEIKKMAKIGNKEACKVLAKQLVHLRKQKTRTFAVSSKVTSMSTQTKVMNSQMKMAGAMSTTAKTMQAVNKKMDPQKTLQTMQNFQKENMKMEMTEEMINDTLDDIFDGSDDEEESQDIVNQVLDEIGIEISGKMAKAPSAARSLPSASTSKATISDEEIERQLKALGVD
UniProt Q8IY22: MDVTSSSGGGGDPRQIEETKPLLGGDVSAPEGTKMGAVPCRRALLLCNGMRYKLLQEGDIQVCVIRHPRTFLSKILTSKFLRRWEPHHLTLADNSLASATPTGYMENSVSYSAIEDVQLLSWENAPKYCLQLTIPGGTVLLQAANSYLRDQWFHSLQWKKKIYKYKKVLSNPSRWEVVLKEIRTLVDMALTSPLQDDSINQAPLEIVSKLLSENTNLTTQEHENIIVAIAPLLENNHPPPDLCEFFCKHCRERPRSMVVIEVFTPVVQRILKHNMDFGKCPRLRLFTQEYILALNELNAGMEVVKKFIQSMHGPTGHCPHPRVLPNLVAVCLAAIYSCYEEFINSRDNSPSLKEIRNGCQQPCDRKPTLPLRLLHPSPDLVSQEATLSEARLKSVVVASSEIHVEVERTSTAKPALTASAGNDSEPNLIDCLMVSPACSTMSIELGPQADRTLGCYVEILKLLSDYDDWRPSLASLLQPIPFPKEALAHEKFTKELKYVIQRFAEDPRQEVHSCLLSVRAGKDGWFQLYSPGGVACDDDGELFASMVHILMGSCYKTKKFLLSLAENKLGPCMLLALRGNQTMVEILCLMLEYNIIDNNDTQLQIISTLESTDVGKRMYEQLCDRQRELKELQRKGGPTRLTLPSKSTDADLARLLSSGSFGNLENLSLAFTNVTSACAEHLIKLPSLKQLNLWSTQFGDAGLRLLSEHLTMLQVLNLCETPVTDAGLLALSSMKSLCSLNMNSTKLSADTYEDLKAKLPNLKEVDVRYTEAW
UniProt P35790, whole entry, looked up: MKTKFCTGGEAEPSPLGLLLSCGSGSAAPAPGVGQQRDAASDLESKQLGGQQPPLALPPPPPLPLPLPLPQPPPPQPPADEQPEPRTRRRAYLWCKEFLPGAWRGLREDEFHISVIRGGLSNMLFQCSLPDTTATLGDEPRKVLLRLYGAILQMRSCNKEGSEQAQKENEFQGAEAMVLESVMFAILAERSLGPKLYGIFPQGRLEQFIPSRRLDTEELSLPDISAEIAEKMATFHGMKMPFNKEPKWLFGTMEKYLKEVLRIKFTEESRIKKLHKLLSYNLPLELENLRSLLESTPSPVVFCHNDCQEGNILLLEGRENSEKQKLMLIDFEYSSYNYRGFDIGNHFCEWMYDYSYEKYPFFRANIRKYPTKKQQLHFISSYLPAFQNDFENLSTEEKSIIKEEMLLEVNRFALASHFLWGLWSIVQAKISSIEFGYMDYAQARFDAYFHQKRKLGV
UniProt Q13111, whole entry, looked up: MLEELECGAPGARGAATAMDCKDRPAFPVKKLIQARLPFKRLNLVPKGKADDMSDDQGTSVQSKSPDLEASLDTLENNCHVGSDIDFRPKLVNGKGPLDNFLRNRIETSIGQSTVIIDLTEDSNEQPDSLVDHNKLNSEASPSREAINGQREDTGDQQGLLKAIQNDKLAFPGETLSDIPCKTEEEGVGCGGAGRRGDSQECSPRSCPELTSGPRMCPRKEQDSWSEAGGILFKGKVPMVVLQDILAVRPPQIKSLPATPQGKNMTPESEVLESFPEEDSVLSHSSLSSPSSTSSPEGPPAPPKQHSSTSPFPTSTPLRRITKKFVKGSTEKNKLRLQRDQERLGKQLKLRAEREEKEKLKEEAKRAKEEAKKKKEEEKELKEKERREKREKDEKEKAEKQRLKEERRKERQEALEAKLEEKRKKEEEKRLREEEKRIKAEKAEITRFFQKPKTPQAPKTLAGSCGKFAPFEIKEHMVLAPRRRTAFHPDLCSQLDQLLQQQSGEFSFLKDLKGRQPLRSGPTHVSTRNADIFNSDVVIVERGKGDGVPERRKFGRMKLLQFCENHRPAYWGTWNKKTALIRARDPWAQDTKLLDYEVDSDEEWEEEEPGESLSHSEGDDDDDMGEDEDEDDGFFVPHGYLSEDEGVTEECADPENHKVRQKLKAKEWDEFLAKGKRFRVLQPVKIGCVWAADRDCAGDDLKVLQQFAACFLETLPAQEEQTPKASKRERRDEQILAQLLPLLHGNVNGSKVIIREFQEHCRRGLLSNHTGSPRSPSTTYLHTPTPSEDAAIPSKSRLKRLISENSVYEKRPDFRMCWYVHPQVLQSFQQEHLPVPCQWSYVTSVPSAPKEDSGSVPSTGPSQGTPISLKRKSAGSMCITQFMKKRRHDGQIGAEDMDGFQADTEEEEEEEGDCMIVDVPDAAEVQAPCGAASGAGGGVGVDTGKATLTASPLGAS
UniProt Q9BWS9: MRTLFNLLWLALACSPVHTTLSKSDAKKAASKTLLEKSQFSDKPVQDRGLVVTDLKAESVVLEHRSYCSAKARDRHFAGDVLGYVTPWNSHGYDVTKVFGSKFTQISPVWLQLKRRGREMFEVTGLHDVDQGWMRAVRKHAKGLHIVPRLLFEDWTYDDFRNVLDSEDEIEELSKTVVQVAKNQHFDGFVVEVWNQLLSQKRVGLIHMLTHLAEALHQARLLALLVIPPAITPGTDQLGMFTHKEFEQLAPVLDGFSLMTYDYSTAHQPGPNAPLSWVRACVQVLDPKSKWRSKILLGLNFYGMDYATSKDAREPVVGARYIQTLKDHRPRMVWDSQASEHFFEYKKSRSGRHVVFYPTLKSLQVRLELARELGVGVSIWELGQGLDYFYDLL
UniProt P30085: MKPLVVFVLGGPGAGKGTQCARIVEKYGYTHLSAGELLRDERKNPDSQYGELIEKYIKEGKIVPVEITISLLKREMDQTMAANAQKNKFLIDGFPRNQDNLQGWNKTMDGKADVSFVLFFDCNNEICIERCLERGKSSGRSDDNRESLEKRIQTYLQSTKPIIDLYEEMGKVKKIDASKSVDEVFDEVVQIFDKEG
UniProt Q99653: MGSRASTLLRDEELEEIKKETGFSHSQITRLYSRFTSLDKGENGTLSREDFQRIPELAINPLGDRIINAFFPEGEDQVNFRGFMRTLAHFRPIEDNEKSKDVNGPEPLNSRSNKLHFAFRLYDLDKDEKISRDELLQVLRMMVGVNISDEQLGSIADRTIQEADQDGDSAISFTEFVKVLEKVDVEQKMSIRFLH
UniProt Q9BW66: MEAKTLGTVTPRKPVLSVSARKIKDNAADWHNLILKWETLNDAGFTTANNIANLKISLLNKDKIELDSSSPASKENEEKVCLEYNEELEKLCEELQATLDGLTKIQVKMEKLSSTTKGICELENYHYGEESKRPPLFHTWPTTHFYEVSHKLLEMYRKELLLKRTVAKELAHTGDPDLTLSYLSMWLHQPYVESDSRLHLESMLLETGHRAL
UniProt Q9NRP2: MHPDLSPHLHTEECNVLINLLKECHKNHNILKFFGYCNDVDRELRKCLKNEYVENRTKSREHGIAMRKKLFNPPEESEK
UniProt Q99828: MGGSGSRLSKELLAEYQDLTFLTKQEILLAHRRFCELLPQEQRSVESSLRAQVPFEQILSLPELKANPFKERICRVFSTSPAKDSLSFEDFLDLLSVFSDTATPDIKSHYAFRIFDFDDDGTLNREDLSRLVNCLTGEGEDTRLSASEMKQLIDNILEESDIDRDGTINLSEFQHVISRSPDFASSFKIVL
UniProt Q14008: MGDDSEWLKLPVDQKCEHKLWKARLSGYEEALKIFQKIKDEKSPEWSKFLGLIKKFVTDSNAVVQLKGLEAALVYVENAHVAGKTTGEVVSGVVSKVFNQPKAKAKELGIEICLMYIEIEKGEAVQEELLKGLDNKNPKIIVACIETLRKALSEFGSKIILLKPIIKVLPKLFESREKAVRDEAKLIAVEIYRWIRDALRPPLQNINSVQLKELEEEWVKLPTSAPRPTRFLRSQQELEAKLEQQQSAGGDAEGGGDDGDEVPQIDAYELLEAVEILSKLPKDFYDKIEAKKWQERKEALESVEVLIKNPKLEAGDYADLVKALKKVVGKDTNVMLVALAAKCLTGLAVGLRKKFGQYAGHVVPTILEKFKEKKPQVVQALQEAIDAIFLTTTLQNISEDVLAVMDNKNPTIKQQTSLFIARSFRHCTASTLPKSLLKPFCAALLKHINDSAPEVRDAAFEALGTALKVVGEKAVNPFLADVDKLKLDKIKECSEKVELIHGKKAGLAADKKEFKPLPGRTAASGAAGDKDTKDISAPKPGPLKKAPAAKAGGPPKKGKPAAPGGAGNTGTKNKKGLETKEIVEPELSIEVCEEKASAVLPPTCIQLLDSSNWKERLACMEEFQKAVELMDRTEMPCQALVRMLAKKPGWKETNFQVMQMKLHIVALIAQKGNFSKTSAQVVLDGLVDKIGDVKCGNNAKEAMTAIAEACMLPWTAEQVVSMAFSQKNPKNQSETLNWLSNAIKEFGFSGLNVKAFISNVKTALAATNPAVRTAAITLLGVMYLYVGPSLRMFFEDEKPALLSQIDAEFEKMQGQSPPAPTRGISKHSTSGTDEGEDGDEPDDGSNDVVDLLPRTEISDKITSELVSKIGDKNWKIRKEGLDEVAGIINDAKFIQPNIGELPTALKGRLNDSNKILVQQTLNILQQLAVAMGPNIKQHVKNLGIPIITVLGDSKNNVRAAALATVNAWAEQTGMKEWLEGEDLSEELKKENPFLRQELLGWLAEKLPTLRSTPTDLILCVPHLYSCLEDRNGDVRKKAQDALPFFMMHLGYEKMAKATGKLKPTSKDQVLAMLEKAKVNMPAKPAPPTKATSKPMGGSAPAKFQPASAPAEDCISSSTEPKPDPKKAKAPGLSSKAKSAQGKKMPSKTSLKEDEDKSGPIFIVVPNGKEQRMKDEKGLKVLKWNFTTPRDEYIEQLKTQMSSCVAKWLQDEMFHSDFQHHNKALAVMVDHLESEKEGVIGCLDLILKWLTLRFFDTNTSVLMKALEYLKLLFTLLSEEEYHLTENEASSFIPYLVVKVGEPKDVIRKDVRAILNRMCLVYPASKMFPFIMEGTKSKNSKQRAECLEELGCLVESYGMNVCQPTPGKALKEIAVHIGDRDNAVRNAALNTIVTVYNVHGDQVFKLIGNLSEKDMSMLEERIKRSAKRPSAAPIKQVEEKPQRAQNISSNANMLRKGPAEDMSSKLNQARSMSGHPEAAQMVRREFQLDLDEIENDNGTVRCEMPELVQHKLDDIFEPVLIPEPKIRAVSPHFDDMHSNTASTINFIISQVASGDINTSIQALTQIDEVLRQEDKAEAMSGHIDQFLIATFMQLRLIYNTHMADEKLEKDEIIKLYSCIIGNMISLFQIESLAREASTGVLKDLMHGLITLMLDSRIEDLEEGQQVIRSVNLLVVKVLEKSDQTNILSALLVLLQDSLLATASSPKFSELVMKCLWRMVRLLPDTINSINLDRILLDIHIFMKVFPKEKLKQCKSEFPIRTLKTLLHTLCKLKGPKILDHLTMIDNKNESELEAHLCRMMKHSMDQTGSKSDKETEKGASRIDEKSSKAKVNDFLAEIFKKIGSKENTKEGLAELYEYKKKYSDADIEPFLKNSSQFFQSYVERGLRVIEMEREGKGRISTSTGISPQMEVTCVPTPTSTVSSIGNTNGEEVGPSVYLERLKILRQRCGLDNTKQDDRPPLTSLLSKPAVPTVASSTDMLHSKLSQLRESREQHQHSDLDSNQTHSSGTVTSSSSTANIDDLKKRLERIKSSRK

Assays:
Assay in all cases: log2 fold change, soluble protein after heating vs DMSO (PISA); higher = thermal stabilisation; K562 lysate, 10 uM; active = over 0.2 and 3.5 SD of the protein, either way, in both replicates (recomputed)
lapatinib = compound: CS(=O)(=O)CCNCc1ccc(-c2ccc3ncnc(Nc4ccc(OCc5cccc(F)c5)c(Cl)c4)c3c2)o1 [lapatinib]
Summary of the method: (§1)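 Pellets of K562 cells were dounce-homogenised in PBS pH 7.4 with 1 mM MgCl2, and the crude extract was held at 1 mg/mL protein for a 30 min treatment with 10 μM compound. Aliquots were heated for 3 min over 48°C-58°C and pooled before NP-40 was added to 0.5% at 4°C. The supernatant from 21,000xg for 90 min was quantified by TMTpro 16plex LC-MS/MS with channel sums equalised. Values are reported from duplicates as log-two fold change in thermal stability relative to solvent controls.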

pictilisib = compound: CS(=O)(=O)N1CCN(Cc2cc3nc(-c4cccc5[nH]ncc45)nc(N4CCOCC4)c3s2)CC1 [pictilisib]
Summary of the method: as §1

crizotinib = compound: C[C@@H](Oc1cc(-c2cnn(C3CCNCC3)c2)cnc1N)c1c(Cl)ccc(F)c1Cl [crizotinib]
Summary of the method: as §1

[1] = compound: C[C@H](C1=CC=C(C=C1)C(=O)NC2=C3C=CNC3=NC=C2)N
Summary of the method: as §1

duvelisib = compound: C[C@H](Nc1ncnc2nc[nH]c12)c1cc2cccc(Cl)c2c(=O)n1-c1ccccc1 [duvelisib]
Summary of the method: as §1

gandotinib = compound: Cc1cc(Nc2cc(CN3CCOCC3)c3nc(C)c(Cc4ccc(Cl)cc4F)n3n2)n[nH]1 [gandotinib]
Summary of the method: as §1

tozasertib = compound: Cc1cc(Nc2cc(N3CCN(C)CC3)nc(Sc3ccc(NC(=O)C4CC4)cc3)n2)n[nH]1 [tozasertib]
Summary of the method: as §1

doramapimod = compound: Cc1ccc(-n2nc(C(C)(C)C)cc2NC(=O)Nc2ccc(OCCN3CCOCC3)c3ccccc23)cc1 [doramapimod]
Summary of the method: as §1

bafetinib = compound: Cc1ccc(NC(=O)c2ccc(CN3CC[C@H](N(C)C)C3)c(C(F)(F)F)c2)cc1Nc1nccc(-c2cncnc2)n1 [bafetinib]
Summary of the method: as §1

[2] = compound: Cc1cccc(CC(=O)N2CCc3c2ccc(-c2cn(C)c4ncnc(N)c24)c3F)n1
Summary of the method: as §1

nilotinib = compound: Cc1cn(-c2cc(NC(=O)c3ccc(C)c(Nc4nccc(-c5cccnc5)n4)c3)cc(C(F)(F)F)c2)cn1 [nilotinib]
Summary of the method: as §1

[3] = compound: Cc1nc(Nc2n[nH]c3c2CN(C(=O)N[C@H](CN(C)C)c2ccccc2)C3(C)C)c2sccc2n1
Summary of the method: as §1

dasatinib = compound: Cc1nc(Nc2ncc(C(=O)Nc3c(C)cccc3Cl)s2)cc(N2CCN(CCO)CC2)n1 [dasatinib]
Summary of the method: as §1

[4] = compound: Cc1ncc(-c2ccnc(Nc3ccc(S(C)(=O)=O)cc3)n2)n1C(C)C
Summary of the method: as §1

[5] = compound: Cn1cc(-c2ccc3c(c2)CCN3C(=O)Cc2cccc(C(F)(F)F)c2)c2c(N)ncnc21
Summary of the method: as §1

quisinostat = compound: Cn1cc(CNCC2CCN(c3ncc(C(=O)NO)cn3)CC2)c2ccccc21 [quisinostat]
Summary of the method: as §1

tipifarnib = compound: Cn1cncc1[C@@](N)(c1ccc(Cl)cc1)c1ccc2c(c1)c(-c1cccc(Cl)c1)cc(=O)n2C [tipifarnib]
Summary of the method: as §1

[6] = compound: NC(=O)Nc1cc(-c2cccc(F)c2)sc1C(=O)N[C@H]1CCCNC1
Summary of the method: as §1

[7] = compound: NC(=O)c1cnc(N[C@@H]2CCCC[C@@H]2N)nc1Nc1cccc(-n2nccn2)c1
Summary of the method: as §1

[8] = compound: NC1(c2ccc(-c3nc4ccn5c(=O)[nH]nc5c4cc3-c3ccccc3)cc2)CCC1
Summary of the method: as §1

Measured: log2 fold change

CHD5 (UniProt Q8TDI0)
inactive: lapatinib 0.028 | pictilisib 0.007 | crizotinib -0.03 | [1] 0 | duvelisib -0.056 | gandotinib 0.001 | tozasertib -0.074 | doramapimod 0.034 | bafetinib -0.042 | [2] -0.002 | nilotinib -0.007 | [3] 0.021 | dasatinib 0.038 | [4] -0.022 | [5] 0.007 | quisinostat -0.082 | tipifarnib 0.005 | [6] 0.02 | [7] -0.019 | [8] 0.01

CKM (UniProt P06732)
active: [1] -0.431
inactive: lapatinib -0.041 | pictilisib -0.035 | crizotinib -0.13 | duvelisib 0.087 | gandotinib 0.096 | tozasertib -0.078 | doramapimod -0.019 | bafetinib -0.023 | [2] 0.113 | nilotinib 0.033 | [3] 0 | dasatinib -0.056 | [4] 0.062 | [5] -0.093 | quisinostat -0.175 | tipifarnib -0.072 | [6] 0.068 | [7] -0.025 | [8] 0.007

CHMP2B (UniProt Q9UQN3)
inactive: lapatinib 0.016 | pictilisib 0.018 | crizotinib 0.074 | [1] -0.006 | duvelisib -0.011 | gandotinib 0.043 | tozasertib 0.005 | doramapimod -0.001 | bafetinib -0.019 | [2] -0.089 | nilotinib -0.002 | [3] 0.008 | dasatinib 0.018 | [4] -0.021 | [5] 0.053 | quisinostat 0.05 | tipifarnib -0.002 | [6] -0.035 | [7] -0.018 | [8] 0.056

CMIP (UniProt Q8IY22)
inactive: lapatinib 0.002 | pictilisib -0.013 | crizotinib -0.001 | [1] 0.046 | duvelisib -0.035 | gandotinib -0.062 | tozasertib 0.017 | doramapimod -0.094 | bafetinib -0.064 | [2] 0.002 | nilotinib -0.034 | [3] 0.023 | dasatinib -0.063 | [4] 0.016 | [5] 0.008 | quisinostat -0.052 | tipifarnib -0.045 | [6] 0.075 | [7] -0.008 | [8] -0.036

CKMT2 (UniProt P17540)
inactive: lapatinib -0.025 | pictilisib -0.018 | crizotinib -0.077 | [1] -0.096 | duvelisib 0.01 | gandotinib -0.006 | tozasertib -0.021 | doramapimod -0.036 | bafetinib -0.025 | [2] 0.021 | nilotinib 0.017 | [3] -0.017 | dasatinib 0.028 | [4] 0.027 | [5] -0.041 | quisinostat 0.003 | tipifarnib 0.032 | [6] 0.073 | [7] 0 | [8] 0.062

Quoted at random: two entries already listed
CKM (UniProt P06732)
active: [1] -0.431
inactive: lapatinib -0.041 | pictilisib -0.035 | crizotinib -0.13 | duvelisib 0.087 | gandotinib 0.096 | tozasertib -0.078 | doramapimod -0.019 | bafetinib -0.023 | [2] 0.113 | nilotinib 0.033 | [3] 0 | dasatinib -0.056 | [4] 0.062 | [5] -0.093 | quisinostat -0.175 | tipifarnib -0.072 | [6] 0.068 | [7] -0.025 | [8] 0.007

CHD5 (UniProt Q8TDI0)
inactive: lapatinib 0.028 | pictilisib 0.007 | crizotinib -0.03 | [1] 0 | duvelisib -0.056 | gandotinib 0.001 | tozasertib -0.074 | doramapimod 0.034 | bafetinib -0.042 | [2] -0.002 | nilotinib -0.007 | [3] 0.021 | dasatinib 0.038 | [4] -0.022 | [5] 0.007 | quisinostat -0.082 | tipifarnib 0.005 | [6] 0.02 | [7] -0.019 | [8] 0.01

Additional results.

CHKA (UniProt P35790)
inactive: lapatinib -0.003 | pictilisib -0.04 | crizotinib -0.002 | [1] 0.032 | duvelisib -0.106 | gandotinib -0.14 | tozasertib -0.044 | doramapimod 0.001 | bafetinib 0.221 | [2] -0.024 | nilotinib 0.067 | [3] -0.003 | dasatinib -0.019 | [4] 0.035 | [5] -0.011 | quisinostat -0.048 | tipifarnib 0.004 | [6] -0.039 | [7] 0.08 | [8] 0.022

CHAF1A (UniProt Q13111)
inactive: lapatinib 0.014 | pictilisib 0.063 | crizotinib 0.012 | [1] -0.054 | duvelisib -0.035 | gandotinib 0.009 | tozasertib -0.023 | doramapimod 0.026 | bafetinib -0.075 | [2] -0.005 | nilotinib -0.027 | [3] 0.032 | dasatinib -0.068 | [4] 0.008 | [5] -0.032 | quisinostat -0.053 | tipifarnib 0.019 | [6] -0.001 | [7] -0.031 | [8] 0.036

CHID1 (UniProt Q9BWS9)
inactive: lapatinib -0.016 | pictilisib -0.016 | crizotinib 0.034 | [1] 0.091 | duvelisib -0.044 | gandotinib -0.037 | tozasertib 0.012 | doramapimod -0.021 | bafetinib -0.064 | [2] -0.055 | nilotinib -0.024 | [3] 0.002 | dasatinib 0.013 | [4] -0.017 | [5] 0.023 | quisinostat 0.05 | tipifarnib 0.053 | [6] -0.012 | [7] 0.009 | [8] -0.004

CMPK1 (UniProt P30085)
inactive: lapatinib 0.024 | pictilisib 0.016 | crizotinib 0.005 | [1] -0.052 | duvelisib 0.031 | gandotinib 0.024 | tozasertib 0.002 | doramapimod 0.003 | bafetinib 0.013 | [2] 0.014 | nilotinib -0.012 | [3] 0.012 | dasatinib 0.001 | [4] -0.038 | [5] 0.014 | quisinostat -0.034 | tipifarnib 0.017 | [6] 0 | [7] -0.02 | [8] 0.012

CHP1 (UniProt Q99653)
inactive: lapatinib -0.008 | pictilisib -0.058 | crizotinib -0.021 | [1] -0.159 | duvelisib 0.025 | gandotinib 0.105 | tozasertib 0 | doramapimod -0.014 | bafetinib -0.008 | [2] 0.056 | nilotinib 0.016 | [3] -0.041 | dasatinib 0.04 | [4] -0.023 | [5] 0.015 | quisinostat -0.031 | tipifarnib -0.021 | [6] 0 | [7] -0.022 | [8] -0.037

CHCHD1 (UniProt Q96BP2)
inactive: lapatinib 0.025 | pictilisib 0.001 | crizotinib -0.069 | duvelisib 0.052 | gandotinib -0.314 | tozasertib -0.016 | doramapimod 0.039 | bafetinib 0.003 | nilotinib -0.09 | [3] -0.023 | dasatinib 0.084 | [4] -0.043 | [5] -0.097 | quisinostat -0.174 | tipifarnib -0.03 | [6] 0 | [7] -0.023 | [8] -0.019
active: [1] 1.33 | [2] -0.35

CINP isoform 3 (UniProt Q9BW66)
inactive: lapatinib -0.059 | pictilisib 0.011 | crizotinib -0.028 | duvelisib 0.062 | gandotinib 0.018 | tozasertib 0.056 | doramapimod 0.036 | bafetinib -0.059 | [2] 0.208 | nilotinib -0.13 | [3] 0.065 | dasatinib -0.073 | [4] 0.19 | [5] 0.024 | quisinostat 0.015 | tipifarnib -0.009 | [6] 0.034 | [7] 0.03
active: [1] -0.325

CMC2 (UniProt Q9NRP2)
inactive: lapatinib -0.001 | pictilisib -0.044 | crizotinib 0.046 | [1] 0.041 | duvelisib 0.014 | gandotinib -0.094 | tozasertib 0.012 | doramapimod -0.019 | bafetinib -0.033 | [2] 0.012 | nilotinib -0.124 | [3] -0.017 | dasatinib 0.026 | [4] -0.102 | [5] 0.022 | quisinostat -0.053 | tipifarnib -0.005 | [6] 0.02 | [7] -0.011 | [8] 0.021

CIB1 (UniProt Q99828)
inactive: lapatinib -0.073 | pictilisib 0.047 | crizotinib -0.046 | [1] 0.023 | duvelisib -0.006 | gandotinib -0.008 | tozasertib 0.06 | doramapimod 0.051 | bafetinib 0.115 | [2] 0.059 | nilotinib -0.014 | [3] -0.016 | dasatinib 0.022 | [4] 0.045 | [5] 0.008 | quisinostat 0.004 | tipifarnib 0.002 | [6] -0.011 | [7] 0.041 | [8] 0

CKAP5 (UniProt Q14008)
inactive: lapatinib 0.001 | pictilisib 0.013 | crizotinib -0.017 | [1] 0.004 | duvelisib 0.001 | gandotinib -0.053 | tozasertib 0.01 | doramapimod 0.011 | bafetinib 0.005 | [2] 0.015 | nilotinib 0 | [3] 0.002 | dasatinib -0.024 | [4] -0.005 | [5] 0.026 | quisinostat -0.03 | tipifarnib -0.028 | [6] 0.021 | [7] 0.01 | [8] 0.006
